Data as given in publication PMC4546362.
Results are given in words; binding and its absence hold for the method and conditions named. In cells and extracts the contact can be indirect. Some binding calls cover weakened binding; strength is not graded here. Sequences can lack the tags named with a protein.

Assays:
[1] = biological target: T1, mel-Bgcn::MYC (D. melanogaster Benign gonial cell neoplasm, Flag- and MYC-tagged) (D. melanogaster) (UniProt Q9W1I2); assay: co-IP; S2 cells co-transfected with Bam::HA and mel-Bgcn::MYC (or MYC alone); lysis buffer 50 mM Tris-HCl pH 7.8, 150 mM NaCl, 0.1% NP-40; anti-Myc (9E10) on Protein G Dynabeads, 4°C overnight; immunoprecipitates analysed by Western blot
T1 sequence: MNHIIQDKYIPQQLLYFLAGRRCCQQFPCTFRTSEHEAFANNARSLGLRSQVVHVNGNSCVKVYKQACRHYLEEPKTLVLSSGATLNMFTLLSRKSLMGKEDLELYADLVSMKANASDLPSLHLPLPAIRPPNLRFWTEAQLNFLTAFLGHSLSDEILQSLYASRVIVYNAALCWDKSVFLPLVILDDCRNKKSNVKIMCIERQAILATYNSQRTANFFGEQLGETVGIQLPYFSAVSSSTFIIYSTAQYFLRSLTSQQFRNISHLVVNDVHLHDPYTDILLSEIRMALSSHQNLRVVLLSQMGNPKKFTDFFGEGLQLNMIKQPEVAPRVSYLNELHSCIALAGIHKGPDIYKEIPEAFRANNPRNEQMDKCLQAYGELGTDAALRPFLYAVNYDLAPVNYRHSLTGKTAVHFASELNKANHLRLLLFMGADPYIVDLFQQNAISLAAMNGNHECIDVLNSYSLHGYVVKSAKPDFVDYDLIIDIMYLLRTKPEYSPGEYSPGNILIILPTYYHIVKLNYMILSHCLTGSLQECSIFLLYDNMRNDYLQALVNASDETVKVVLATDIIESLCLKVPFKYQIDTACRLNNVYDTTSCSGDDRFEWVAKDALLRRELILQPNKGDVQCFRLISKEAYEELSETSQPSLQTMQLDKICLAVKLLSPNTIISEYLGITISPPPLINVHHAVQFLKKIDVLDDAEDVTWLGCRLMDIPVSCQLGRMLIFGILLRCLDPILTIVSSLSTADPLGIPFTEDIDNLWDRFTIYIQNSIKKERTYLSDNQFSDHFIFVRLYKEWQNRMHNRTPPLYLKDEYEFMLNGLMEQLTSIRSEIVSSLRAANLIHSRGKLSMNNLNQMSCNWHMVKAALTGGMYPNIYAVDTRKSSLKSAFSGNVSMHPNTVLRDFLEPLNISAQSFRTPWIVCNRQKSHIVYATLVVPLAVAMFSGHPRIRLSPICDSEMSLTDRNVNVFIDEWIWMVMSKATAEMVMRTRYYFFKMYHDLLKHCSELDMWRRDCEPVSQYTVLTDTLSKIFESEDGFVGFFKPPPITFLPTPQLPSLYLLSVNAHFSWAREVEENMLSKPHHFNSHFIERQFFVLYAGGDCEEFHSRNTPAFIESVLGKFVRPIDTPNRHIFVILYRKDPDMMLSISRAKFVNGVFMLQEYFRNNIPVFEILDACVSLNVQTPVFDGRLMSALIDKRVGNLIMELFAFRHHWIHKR

[2] = biological target: T2, mel-Bam::HA (D. melanogaster Bag of marbles, Flag- and HA-tagged) (D. melanogaster) (UniProt P22745); assay: co-IP; S2 cells co-transfected with mel-Bgcn::MYC and Bam::HA (or HA alone); lysis buffer 50 mM Tris-HCl pH 7.8, 150 mM NaCl, 0.1% NP-40; anti-HA (3F10) on Protein G Dynabeads, 4°C overnight; immunoprecipitates analysed by Western blot
T2 sequence: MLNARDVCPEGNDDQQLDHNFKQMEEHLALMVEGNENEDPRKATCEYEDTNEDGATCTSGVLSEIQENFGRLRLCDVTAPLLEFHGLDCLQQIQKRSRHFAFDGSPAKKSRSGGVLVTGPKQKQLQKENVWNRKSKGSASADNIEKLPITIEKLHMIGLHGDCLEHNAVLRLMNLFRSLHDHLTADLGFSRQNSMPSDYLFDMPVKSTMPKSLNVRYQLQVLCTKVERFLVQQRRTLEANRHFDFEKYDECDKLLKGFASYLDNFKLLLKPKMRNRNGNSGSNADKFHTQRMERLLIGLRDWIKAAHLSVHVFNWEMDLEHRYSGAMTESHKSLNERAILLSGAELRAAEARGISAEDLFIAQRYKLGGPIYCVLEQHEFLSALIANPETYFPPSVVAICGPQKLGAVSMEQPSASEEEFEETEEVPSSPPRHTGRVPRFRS

B1: mel-Bam::HA (D. melanogaster Bag of marbles, Flag- and HA-tagged) (protein, UniProt P22745 1-442)
chain: MLNARDVCPEGNDDQQLDHNFKQMEEHLALMVEGNENEDPRKATCEYEDTNEDGATCTSGVLSEIQENFGRLRLCDVTAPLLEFHGLDCLQQIQKRSRHFAFDGSPAKKSRSGGVLVTGPKQKQLQKENVWNRKSKGSASADNIEKLPITIEKLHMIGLHGDCLEHNAVLRLMNLFRSLHDHLTADLGFSRQNSMPSDYLFDMPVKSTMPKSLNVRYQLQVLCTKVERFLVQQRRTLEANRHFDFEKYDECDKLLKGFASYLDNFKLLLKPKMRNRNGNSGSNADKFHTQRMERLLIGLRDWIKAAHLSVHVFNWEMDLEHRYSGAMTESHKSLNERAILLSGAELRAAEARGISAEDLFIAQRYKLGGPIYCVLEQHEFLSALIANPETYFPPSVVAICGPQKLGAVSMEQPSASEEEFEETEEVPSSPPRHTGRVPRFRS
- binding [1]: binds

B2: mel-Bgcn::MYC (D. melanogaster Benign gonial cell neoplasm, Flag- and MYC-tagged) (protein, UniProt Q9W1I2 1-1215)
chain: MNHIIQDKYIPQQLLYFLAGRRCCQQFPCTFRTSEHEAFANNARSLGLRSQVVHVNGNSCVKVYKQACRHYLEEPKTLVLSSGATLNMFTLLSRKSLMGKEDLELYADLVSMKANASDLPSLHLPLPAIRPPNLRFWTEAQLNFLTAFLGHSLSDEILQSLYASRVIVYNAALCWDKSVFLPLVILDDCRNKKSNVKIMCIERQAILATYNSQRTANFFGEQLGETVGIQLPYFSAVSSSTFIIYSTAQYFLRSLTSQQFRNISHLVVNDVHLHDPYTDILLSEIRMALSSHQNLRVVLLSQMGNPKKFTDFFGEGLQLNMIKQPEVAPRVSYLNELHSCIALAGIHKGPDIYKEIPEAFRANNPRNEQMDKCLQAYGELGTDAALRPFLYAVNYDLAPVNYRHSLTGKTAVHFASELNKANHLRLLLFMGADPYIVDLFQQNAISLAAMNGNHECIDVLNSYSLHGYVVKSAKPDFVDYDLIIDIMYLLRTKPEYSPGEYSPGNILIILPTYYHIVKLNYMILSHCLTGSLQECSIFLLYDNMRNDYLQALVNASDETVKVVLATDIIESLCLKVPFKYQIDTACRLNNVYDTTSCSGDDRFEWVAKDALLRRELILQPNKGDVQCFRLISKEAYEELSETSQPSLQTMQLDKICLAVKLLSPNTIISEYLGITISPPPLINVHHAVQFLKKIDVLDDAEDVTWLGCRLMDIPVSCQLGRMLIFGILLRCLDPILTIVSSLSTADPLGIPFTEDIDNLWDRFTIYIQNSIKKERTYLSDNQFSDHFIFVRLYKEWQNRMHNRTPPLYLKDEYEFMLNGLMEQLTSIRSEIVSSLRAANLIHSRGKLSMNNLNQMSCNWHMVKAALTGGMYPNIYAVDTRKSSLKSAFSGNVSMHPNTVLRDFLEPLNISAQSFRTPWIVCNRQKSHIVYATLVVPLAVAMFSGHPRIRLSPICDSEMSLTDRNVNVFIDEWIWMVMSKATAEMVMRTRYYFFKMYHDLLKHCSELDMWRRDCEPVSQYTVLTDTLSKIFESEDGFVGFFKPPPITFLPTPQLPSLYLLSVNAHFSWAREVEENMLSKPHHFNSHFIERQFFVLYAGGDCEEFHSRNTPAFIESVLGKFVRPIDTPNRHIFVILYRKDPDMMLSISRAKFVNGVFMLQEYFRNNIPVFEILDACVSLNVQTPVFDGRLMSALIDKRVGNLIMELFAFRHHWIHKR
- binding [2]: binds
